Test results: publication PMC12472947 (Pharmaceuticals, 2025)

Test: Control assays of compound interference on DTNB/thiolate detection
Details: 415 nm, 30 min

Structure (SMILES)	% Interference (compound + DTNB + ACTI) [%]	% Interference (compound + DTNB) [%]	% Interference (compound alone) [%]
O=c1oc2cc(OCCN3CCCCC3)ccc2cc1-c1cn(-c2ccccc2)nn1 [Compound 1a, 3-(1-Phenyl-1H-1,2,3-triazol-4-yl)-7-(2-(piperidin-1-yl)ethoxy)-2H-chromen-2-one]	2.77	0.31	0.06
O=c1oc2cc(OCCN3CCCCC3)ccc2cc1-c1cn(Cc2ccccc2)nn1 [Compound 1h, 3-(1-Benzyl-1H-1,2,3-triazol-4-yl)-7-(2-(piperidin-1-yl)ethoxy)-2H-chromen-2-one]	2.34	0.31	0.06
